This is an account of results in article PMC8424950.

The target in assay [1] is T1, KDELR1-mCherry (human) (UniProt P24390).
T1 sequence: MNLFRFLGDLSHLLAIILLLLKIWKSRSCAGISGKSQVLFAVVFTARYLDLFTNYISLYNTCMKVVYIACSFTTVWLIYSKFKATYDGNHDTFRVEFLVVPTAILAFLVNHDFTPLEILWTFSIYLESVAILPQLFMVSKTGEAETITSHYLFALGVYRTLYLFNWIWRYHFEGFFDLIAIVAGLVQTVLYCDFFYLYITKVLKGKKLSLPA
Description: co-IP; anti-RFP agarose beads, 4 h at 4°C, on lysates (20 mM HEPES pH 7.4, 100 mM NaCl, 2 mM DDM + 0.02% CHS) of HeLa cells with KDELR1-mCherry or endogenously tagged KDELR1-3xFlag-mCherry; western blot; also done with ACBD3-depleted, ACBD3-KO and ACBD3 over-expressing cells.

The target of assay [2] is T1, KDELR1-mCherry (human). Description: co-IP; HeLa co-transfected with KDELR1-mCherry and hGH-GFP-myc or hGH-GFP-myc-KDEL, treated with DSP crosslinker (2 mM) in PBS at 37 °C for 30 min before lysis; anti-RFP agarose beads; western blot. For orientation: A western blot detects proteins with antibodies after separation by electrophoresis.

No constants are given. Whether binding was seen depends on the method and setting. In cells and extracts the contact can be indirect. Binding calls can cover weak binding; strength is not graded here.

As to “γ-COP (endogenous) (human (endogenous in HeLa))”, the binding entry in assay [1] and in assay [2] was “binds” in each case.
Regarding “p24 (endogenous) (human (endogenous in HeLa))”, the binding result in assay [1] and in assay [2] was “binds” throughout.
